± gives the standard deviation of the averaged measurements. This is a selection; strong and weak results do not stand in their true shares. Small differences around the control level are noise.
Each target was assayed with Nc1ncnc2c1ncn2[C@@H]1O[C@H](COP(=O)(O)OP(=O)(O)NP(=O)(O)O)[C@@H](O)[C@H]1O [adenylyl imidodiphosphate] (assay: NP40-soluble protein abundance relative to vehicle (solubility fold change) (ratio); higher = more soluble protein in presence of AMP-PNP). Conditions: concentration: 0.1mM.
Method in brief: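 Eight concentrations, 0.1 to 10 mM, were tested on Jurkat crude lysate for 10 min at room temperature and then 3 min at 37 °C, in three independent experiments. The lysate was solubilised with 0.8% NP40 and benzonase, ultracentrifuged, and the supernatant TMT-labelled for LC-MS/MS. Each value is the fold change against the detergent-processed vehicle in its own replicate, from vsn-normalised intensities.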

By UniProt entry, the sequences of proteins in these tests, tags left out. Where a name states a change or a piece, a line headed by the entry shows the natural chain unless it says otherwise.
UniProt Q9UPQ9, whole entry: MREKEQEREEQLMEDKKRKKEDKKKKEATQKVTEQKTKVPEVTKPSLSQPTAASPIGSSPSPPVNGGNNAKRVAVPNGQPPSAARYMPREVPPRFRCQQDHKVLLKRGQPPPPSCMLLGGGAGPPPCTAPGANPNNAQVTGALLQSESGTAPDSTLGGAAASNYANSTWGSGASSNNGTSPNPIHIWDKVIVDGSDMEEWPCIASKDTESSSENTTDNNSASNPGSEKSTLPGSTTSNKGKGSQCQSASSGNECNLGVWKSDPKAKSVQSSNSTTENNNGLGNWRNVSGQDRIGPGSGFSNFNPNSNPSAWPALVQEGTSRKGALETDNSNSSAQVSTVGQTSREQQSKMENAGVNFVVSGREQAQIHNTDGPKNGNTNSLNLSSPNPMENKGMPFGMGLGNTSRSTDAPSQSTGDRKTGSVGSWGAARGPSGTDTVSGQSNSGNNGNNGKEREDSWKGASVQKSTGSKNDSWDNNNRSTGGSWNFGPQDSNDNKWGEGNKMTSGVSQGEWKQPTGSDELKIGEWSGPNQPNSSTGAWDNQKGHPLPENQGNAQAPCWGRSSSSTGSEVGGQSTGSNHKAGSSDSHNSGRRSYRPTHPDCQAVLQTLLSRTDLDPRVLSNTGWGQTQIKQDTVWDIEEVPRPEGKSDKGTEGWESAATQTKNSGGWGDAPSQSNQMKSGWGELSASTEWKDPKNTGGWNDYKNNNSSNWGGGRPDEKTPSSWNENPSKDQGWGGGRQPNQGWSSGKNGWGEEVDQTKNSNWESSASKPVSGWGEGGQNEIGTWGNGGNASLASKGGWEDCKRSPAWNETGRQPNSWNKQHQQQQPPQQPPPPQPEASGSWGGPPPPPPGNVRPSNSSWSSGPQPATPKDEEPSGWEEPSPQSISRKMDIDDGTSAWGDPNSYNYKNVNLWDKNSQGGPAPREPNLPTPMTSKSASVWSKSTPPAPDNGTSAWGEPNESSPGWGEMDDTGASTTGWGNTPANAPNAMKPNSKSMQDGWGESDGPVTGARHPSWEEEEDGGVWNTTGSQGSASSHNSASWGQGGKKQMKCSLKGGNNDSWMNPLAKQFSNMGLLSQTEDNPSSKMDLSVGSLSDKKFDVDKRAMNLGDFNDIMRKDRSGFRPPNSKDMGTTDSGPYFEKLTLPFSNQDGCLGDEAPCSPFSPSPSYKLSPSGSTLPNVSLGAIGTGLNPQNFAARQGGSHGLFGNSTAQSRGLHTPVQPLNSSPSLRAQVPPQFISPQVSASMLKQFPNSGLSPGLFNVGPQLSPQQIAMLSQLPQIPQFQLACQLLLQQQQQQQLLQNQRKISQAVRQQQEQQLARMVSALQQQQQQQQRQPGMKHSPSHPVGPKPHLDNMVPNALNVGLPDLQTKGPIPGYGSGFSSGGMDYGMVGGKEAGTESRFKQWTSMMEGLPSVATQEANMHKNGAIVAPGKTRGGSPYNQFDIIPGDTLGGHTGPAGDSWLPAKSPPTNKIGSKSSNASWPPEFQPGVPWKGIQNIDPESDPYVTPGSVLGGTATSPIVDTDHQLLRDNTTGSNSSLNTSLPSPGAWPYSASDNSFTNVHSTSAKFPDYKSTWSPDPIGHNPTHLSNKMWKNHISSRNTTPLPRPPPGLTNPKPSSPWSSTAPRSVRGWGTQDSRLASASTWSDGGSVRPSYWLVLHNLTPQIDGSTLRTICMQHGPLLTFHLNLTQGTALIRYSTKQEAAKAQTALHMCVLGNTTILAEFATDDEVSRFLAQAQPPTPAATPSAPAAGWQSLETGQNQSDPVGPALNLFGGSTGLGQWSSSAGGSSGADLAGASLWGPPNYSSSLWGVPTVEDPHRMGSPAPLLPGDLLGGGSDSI
UniProt Q9UHB7: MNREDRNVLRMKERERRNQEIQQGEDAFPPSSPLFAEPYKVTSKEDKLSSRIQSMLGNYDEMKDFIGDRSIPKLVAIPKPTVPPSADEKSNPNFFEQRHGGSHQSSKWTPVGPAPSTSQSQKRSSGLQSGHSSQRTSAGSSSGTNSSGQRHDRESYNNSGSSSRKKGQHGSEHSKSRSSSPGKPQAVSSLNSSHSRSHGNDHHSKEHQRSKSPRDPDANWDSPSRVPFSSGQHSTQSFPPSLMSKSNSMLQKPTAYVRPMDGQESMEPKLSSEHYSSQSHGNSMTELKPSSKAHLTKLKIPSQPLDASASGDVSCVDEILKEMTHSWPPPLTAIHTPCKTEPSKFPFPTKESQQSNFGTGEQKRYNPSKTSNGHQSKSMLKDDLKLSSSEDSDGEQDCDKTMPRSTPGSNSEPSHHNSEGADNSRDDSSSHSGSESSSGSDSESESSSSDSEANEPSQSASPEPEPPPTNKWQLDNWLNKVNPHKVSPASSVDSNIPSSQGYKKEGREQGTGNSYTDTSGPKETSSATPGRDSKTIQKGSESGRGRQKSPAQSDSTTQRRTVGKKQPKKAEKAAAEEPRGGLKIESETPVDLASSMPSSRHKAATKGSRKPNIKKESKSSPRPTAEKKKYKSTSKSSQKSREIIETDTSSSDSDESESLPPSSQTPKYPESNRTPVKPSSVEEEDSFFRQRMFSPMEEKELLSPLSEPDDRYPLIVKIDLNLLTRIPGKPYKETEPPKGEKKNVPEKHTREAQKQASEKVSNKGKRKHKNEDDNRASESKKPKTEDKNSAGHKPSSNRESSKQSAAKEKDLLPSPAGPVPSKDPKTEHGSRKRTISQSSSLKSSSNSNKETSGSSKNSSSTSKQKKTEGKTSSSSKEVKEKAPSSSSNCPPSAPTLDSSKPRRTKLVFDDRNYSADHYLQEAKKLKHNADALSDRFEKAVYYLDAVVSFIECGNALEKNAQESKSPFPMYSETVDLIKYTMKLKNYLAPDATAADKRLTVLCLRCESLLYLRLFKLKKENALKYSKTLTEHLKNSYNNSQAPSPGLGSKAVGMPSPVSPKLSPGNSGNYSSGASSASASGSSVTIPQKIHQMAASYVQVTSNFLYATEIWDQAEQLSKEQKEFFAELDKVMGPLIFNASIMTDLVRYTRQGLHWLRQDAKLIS
UniProt Q9UEU0: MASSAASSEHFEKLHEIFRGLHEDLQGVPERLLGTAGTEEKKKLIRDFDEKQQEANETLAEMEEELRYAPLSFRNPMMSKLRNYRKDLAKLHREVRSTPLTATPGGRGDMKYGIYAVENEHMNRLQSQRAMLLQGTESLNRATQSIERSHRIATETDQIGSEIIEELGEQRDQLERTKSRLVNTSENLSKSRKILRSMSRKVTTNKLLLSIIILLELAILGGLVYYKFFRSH
UniProt Q9UDY2: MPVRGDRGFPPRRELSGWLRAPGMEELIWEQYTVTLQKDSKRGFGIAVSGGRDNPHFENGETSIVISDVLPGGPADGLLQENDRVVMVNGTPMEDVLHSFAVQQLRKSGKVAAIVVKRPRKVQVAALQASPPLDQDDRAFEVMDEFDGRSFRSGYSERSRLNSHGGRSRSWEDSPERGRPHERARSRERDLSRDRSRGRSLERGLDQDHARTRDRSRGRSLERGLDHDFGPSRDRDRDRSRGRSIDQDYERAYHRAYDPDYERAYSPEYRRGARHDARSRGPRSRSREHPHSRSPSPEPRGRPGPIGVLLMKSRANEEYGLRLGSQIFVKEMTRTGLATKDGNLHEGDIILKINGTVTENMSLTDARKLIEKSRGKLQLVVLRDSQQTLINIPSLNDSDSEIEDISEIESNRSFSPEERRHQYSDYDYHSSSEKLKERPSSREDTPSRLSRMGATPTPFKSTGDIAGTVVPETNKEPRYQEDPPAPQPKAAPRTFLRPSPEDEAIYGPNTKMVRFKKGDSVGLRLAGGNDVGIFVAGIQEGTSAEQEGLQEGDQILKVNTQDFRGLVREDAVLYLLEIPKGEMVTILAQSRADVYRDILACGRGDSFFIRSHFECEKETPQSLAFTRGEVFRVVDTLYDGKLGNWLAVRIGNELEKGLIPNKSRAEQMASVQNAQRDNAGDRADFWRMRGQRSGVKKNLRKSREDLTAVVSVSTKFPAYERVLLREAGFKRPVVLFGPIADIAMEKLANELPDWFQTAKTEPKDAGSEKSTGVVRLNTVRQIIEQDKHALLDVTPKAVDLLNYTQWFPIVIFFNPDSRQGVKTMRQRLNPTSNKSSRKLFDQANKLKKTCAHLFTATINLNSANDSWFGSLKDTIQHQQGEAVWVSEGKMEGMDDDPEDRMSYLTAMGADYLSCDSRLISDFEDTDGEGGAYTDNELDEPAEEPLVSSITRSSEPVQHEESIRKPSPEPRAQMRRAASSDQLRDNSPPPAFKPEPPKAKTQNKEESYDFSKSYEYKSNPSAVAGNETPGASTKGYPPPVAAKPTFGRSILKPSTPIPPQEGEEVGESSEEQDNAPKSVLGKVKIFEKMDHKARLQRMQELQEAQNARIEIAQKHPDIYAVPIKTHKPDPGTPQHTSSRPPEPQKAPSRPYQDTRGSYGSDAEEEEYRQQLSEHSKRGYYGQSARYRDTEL
UniProt Q9ULP9: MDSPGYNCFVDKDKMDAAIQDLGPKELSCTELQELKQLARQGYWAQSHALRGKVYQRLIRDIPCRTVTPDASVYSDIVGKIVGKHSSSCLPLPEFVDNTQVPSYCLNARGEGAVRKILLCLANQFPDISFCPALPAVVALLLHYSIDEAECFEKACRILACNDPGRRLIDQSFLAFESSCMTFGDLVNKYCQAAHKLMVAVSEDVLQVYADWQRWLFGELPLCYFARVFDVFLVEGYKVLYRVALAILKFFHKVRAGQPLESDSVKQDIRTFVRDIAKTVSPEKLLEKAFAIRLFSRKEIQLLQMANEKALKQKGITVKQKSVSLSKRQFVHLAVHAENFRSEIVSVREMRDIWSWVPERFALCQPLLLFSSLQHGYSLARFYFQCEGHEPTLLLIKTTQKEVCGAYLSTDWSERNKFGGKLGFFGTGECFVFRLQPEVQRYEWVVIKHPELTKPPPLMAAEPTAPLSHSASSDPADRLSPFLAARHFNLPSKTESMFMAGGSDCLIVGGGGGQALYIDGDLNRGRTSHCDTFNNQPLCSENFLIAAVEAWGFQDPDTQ
UniProt Q9UHP3: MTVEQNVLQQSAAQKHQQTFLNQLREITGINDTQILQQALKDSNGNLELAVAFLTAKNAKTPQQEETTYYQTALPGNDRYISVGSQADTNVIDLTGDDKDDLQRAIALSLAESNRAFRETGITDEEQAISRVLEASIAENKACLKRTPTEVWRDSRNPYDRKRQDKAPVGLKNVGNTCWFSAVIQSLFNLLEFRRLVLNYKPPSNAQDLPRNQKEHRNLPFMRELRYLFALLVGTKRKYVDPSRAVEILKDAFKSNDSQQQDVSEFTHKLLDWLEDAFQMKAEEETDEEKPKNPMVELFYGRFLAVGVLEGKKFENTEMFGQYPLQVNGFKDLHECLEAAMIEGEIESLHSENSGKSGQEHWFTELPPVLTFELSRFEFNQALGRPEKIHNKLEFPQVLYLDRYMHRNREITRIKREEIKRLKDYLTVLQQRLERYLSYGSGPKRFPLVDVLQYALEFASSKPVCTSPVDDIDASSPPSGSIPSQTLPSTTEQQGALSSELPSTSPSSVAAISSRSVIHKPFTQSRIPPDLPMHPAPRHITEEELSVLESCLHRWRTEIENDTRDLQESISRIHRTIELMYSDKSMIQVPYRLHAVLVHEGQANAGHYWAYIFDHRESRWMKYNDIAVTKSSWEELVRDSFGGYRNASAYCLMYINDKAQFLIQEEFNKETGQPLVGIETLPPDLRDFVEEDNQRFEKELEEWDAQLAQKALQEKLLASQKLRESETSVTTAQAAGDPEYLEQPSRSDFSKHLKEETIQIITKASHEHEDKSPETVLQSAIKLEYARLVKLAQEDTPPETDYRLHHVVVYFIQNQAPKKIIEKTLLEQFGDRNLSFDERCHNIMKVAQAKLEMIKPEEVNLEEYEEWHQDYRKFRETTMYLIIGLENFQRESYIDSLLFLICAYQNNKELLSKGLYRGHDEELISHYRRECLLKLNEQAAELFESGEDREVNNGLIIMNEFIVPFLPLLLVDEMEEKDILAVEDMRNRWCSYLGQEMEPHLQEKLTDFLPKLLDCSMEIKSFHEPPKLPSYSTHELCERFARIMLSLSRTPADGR
UniProt Q9Y2P8: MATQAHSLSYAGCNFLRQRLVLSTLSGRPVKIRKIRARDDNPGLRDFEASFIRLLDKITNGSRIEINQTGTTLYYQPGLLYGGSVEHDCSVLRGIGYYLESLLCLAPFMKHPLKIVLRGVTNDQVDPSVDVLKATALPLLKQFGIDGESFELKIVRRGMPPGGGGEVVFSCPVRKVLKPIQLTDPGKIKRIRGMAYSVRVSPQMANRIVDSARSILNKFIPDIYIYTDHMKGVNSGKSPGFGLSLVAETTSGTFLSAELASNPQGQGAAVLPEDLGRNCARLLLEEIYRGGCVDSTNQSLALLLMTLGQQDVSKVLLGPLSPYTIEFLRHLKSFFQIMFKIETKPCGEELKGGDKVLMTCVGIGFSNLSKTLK
UniProt Q9Y3D2: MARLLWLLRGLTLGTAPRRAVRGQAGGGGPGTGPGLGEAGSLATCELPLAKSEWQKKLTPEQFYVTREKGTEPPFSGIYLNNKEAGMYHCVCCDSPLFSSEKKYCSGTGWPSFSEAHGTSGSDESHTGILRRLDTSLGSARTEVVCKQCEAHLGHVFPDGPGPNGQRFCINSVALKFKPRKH

Target	NP40-soluble protein abundance
MRPL11 (UniProt Q9Y3B7)	1.02 ± 0.023
NRBP1 (UniProt Q9UHY1)	1.006 ± 0.0095
UniProt Q9UH92 and related entries	0.978 ± 0.043
UniProt Q9UI08-2|G3V5F7	1.034 ± 0.01
PFDN2 (UniProt Q9UHV9)	1.01 ± 0.036
FIS1 (UniProt Q9Y3D6)	0.985 ± 0.034
UniProt Q9UPP1 and related entries	1 ± 0.022
UniProt Q9UPQ9-1|Q9UPQ9 and related entries	0.975 ± 0.025
AFF4 (UniProt Q9UHB7)	1.02 ± 0.021
VTI1B (UniProt Q9UEU0)	1 ± 0.029
UniProt Q9UDY2 and related entries	1.02 ± 0.011
MRTO4 (UniProt Q9UKD2)	1.04 ± 0.043
UniProt Q9UI30	0.995 ± 0.054

Same assay, conditions: concentration: 0.5mM

Target	NP40-soluble protein abundance
UniProt Q9Y394 and related entries	0.962 ± 0.031
XPO7 (UniProt Q9UIA9)	0.986 ± 0.036
UniProt Q9UDT6 and related entries	1.02 ± 0.06
SRRM2 (UniProt Q9UQ35)	1.04 ± 0.039
UniProt Q9UP95 and related entries	0.983 ± 0.019
UniProt Q9ULP9 and related entries	1.01 ± 0.031
UniProt Q9UBU8 and related entries	1.04 ± 0.047
UniProt Q9UBS9-2|Q9UBS9	1 ± 0.033
SMC3 (UniProt Q9UQE7)	1.02 ± 0.045
UniProt Q9UKL6 and related entries	0.994 ± 0.031
UniProt Q9UMZ2 and related entries	0.988 ± 0.042
UniProt Q9Y3C4 and related entries	1.02 ± 0.058
PRPF19 (UniProt Q9UMS4)	1.04 ± 0.033
UniProt Q9UHP3 and related entries	0.987 ± 0.0029
RCL1 (UniProt Q9Y2P8)	0.988 ± 0.11
UniProt Q9ULR0 and related entries	0.989 ± 0.042
UniProt Q9UH03 and related entries	0.98 ± 0.015
LNPEP (UniProt Q9UIQ6)	1.03 ± 0.062
DIS3 (UniProt Q9Y2L1)	0.961 ± 0.068

Target	NP40-soluble protein abundance
UniProt Q9UIG0 and related entries	1.02 ± 0.012
UniProt Q9UKM9 and related entries	1.03 ± 0.051
MSRB2 (UniProt Q9Y3D2)	0.982 ± 0.03
UniProt Q9ULH0 and related entries	0.982 ± 0.058
UniProt Q9UKX7 and related entries	1.04 ± 0.017
UniProt Q9Y2H0 and related entries	0.982 ± 0.039
MRPL11 (UniProt Q9Y3B7)	1.02 ± 0.048
NRBP1 (UniProt Q9UHY1)	1.01 ± 0.011
UniProt Q9UH92 and related entries	1.01 ± 0.025
UniProt Q9UI08-2|G3V5F7	0.994 ± 0.042
PFDN2 (UniProt Q9UHV9)	1.07 ± 0.074
FIS1 (UniProt Q9Y3D6)	0.996 ± 0.09
UniProt Q9UPP1 and related entries	0.984 ± 0.053
UniProt Q9UPQ9-1|Q9UPQ9 and related entries	0.981 ± 0.046
AFF4 (UniProt Q9UHB7)	1.02 ± 0.049
VTI1B (UniProt Q9UEU0)	0.997 ± 0.033
UniProt Q9UDY2 and related entries	1.01 ± 0.055
MRTO4 (UniProt Q9UKD2)	1.07 ± 0.01
UniProt Q9UI30	0.992 ± 0.061

Source: the supplement of paper PMC6411743
